Values from PubChem BioAssay AID1053208 (Peter MacCallum Cancer Centre, 2014).
Shown is an unselected part of about 17,000 deposited reagents. In the full data, 788 (4.7%) got an active call. 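Calls rest on z-score classes alone; an extra cut-off of viability at most 70% of control was not applied to them.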

- Test: 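Synthetic lethal interactions between gene loss and doxorubicin in osteosarcoma cells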 (primary screen)
- System: mouse osteosarcoma cells, early-passage culture from an engineered mouse model of fibroblastic bone tumour
- Reagent: siRNA pool against mouse genes, 40 nM
- Duration: about 120 h (48 h before drug, then 72 h with drug)
- Conditions: doxorubicin 100 nM for 72 h, roughly 30-40% inhibitory dose
- Measured: 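Viability read as ATP luminescence after 72 h of 100 nM doxorubicin or none, duplicate wells averaged, scaled to non-targeting siRNA, then expressed as robust z-scores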
- Reading the numbers: viability z-score with doxorubicin and doxorubicin viability vs non-targeting: higher = more viable cells under doxorubicin; viability z-score without drug: higher = more viable cells with knock-down alone; z-score of drug to no-drug ratio: higher = less drug sensitisation by knock-down
- Active means: 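a pool counts as active when its viability z-score with doxorubicin is -2 or below and its z-score without drug lies between -2 and 2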

gene | combined z-score class | viability z-score with doxorubicin | viability z-score without drug | z-score of drug to no-drug ratio | doxorubicin viability vs non-targeting | outcome
Lamp1 | no change with or without drug | -1.57 | 0.17 | -1.69 | 0.8 | inactive
Krt6a | no change with or without drug | 0.22 | 0.17 | 0.22 | 0.96 | inactive
Stx6 | no change with or without drug | 0.34 | -0.84 | 1.12 | 0.97 | inactive
Abcf2 | no change with or without drug | 0 | -1.18 | 1.01 | 0.94 | inactive
5330416C01Rik | no change with or without drug | 1.01 | 1.35 | 0.22 | 1.03 | inactive
Smarcd3 | no change with or without drug | -0.34 | 0.17 | -0.34 | 0.91 | inactive
Tmc4 | no change with or without drug | 1.01 | -0.17 | 1.35 | 1.03 | inactive
Elp5 | no change with or without drug | 0.9 | 0.34 | 0.79 | 1.02 | inactive
Irak4 | no change with or without drug | 0.9 | 0.84 | 0.45 | 1.02 | inactive
Ppp2ca | no change with or without drug | 0.79 | -0.51 | 1.35 | 1.01 | inactive
Psmg1 | no change with or without drug | 0.67 | 0.51 | 0.45 | 1 | inactive
P4ha1 | no change with or without drug | 0.56 | 0 | 0.67 | 0.99 | inactive
Abhd14b | no change with or without drug | -0.67 | 0.51 | -0.9 | 0.88 | inactive
Lhx2 | no change with or without drug | -1.12 | 0.84 | -1.57 | 0.84 | inactive
Ccdc25 | no change with or without drug | -0.11 | -0.67 | 0.45 | 0.93 | inactive
Olfm3 | no change with or without drug | -0.34 | -0.84 | 0.34 | 0.91 | inactive
Sprn | no change with or without drug | 0.9 | -0.17 | 1.24 | 1.02 | inactive
Tango2 | no change with or without drug | 0 | 0.17 | 0 | 0.94 | inactive
H2-DMa | no change with or without drug | 0.67 | -0.17 | 0.9 | 1 | inactive
Laptm4a | low cell count with doxorubicin only | -2.92 | -0.84 | -2.47 | 0.68 | active
Or5m10b | low cell count without drug only | -0.9 | -2.53 | 1.01 | 0.86 | inactive
Csrp1 | no change with or without drug | 1.12 | 0.84 | 0.67 | 1.04 | inactive
Clec4d | no change with or without drug | 1.57 | -0.84 | 2.47 | 1.08 | inactive
Mmd | no change with or without drug | -0.22 | -1.85 | 1.35 | 0.92 | inactive
Frat2 | high cell count with doxorubicin only | 2.81 | 1.85 | 1.57 | 1.19 | inactive
AI837181 | no change with or without drug | -1.01 | -1.01 | -0.22 | 0.85 | inactive
Isg20 | no change with or without drug | 1.35 | 0.17 | 1.35 | 1.06 | inactive
Itpr1 | no change with or without drug | -0.34 | 0.67 | -0.67 | 0.91 | inactive
Cdc42bpg | no change with or without drug | 0.45 | -0.17 | 0.67 | 0.98 | inactive
Ap3m2 | no change with or without drug | -0.11 | -0.17 | 0.11 | 0.93 | inactive
Fut1 | no change with or without drug | 0.56 | 0.34 | 0.45 | 0.99 | inactive
Scap | no change with or without drug | 1.8 | 1.85 | 0.67 | 1.1 | inactive
9630028B13Rik | no change with or without drug | -0.67 | -0.17 | -0.45 | 0.88 | inactive
Mesp2 | no change with or without drug | -0.67 | 0 | -0.56 | 0.88 | inactive
Zbtb7c | no change with or without drug | -0.11 | -0.17 | 0.11 | 0.93 | inactive
Xlr5c | no change with or without drug | 0.9 | 0.51 | 0.67 | 1.02 | inactive
Mfap3l | no change with or without drug | 0.56 | -0.51 | 1.12 | 0.99 | inactive
Arl11 | no change with or without drug | -0.9 | -0.34 | -0.67 | 0.86 | inactive
Hhatl | no change with or without drug | 0.9 | 0.84 | 0.45 | 1.02 | inactive
Cntf | no change with or without drug | -0.9 | 0.67 | -1.24 | 0.86 | inactive
Adamtsl4 | no change with or without drug | -1.46 | -0.84 | -0.9 | 0.81 | inactive
Slc26a5 | no change with or without drug | 1.01 | -0.51 | 1.57 | 1.03 | inactive
Mgll | no change with or without drug | 0.79 | 0.34 | 0.67 | 1.01 | inactive
Dnttip2 | no change with or without drug | 0 | -0.17 | 0.22 | 0.94 | inactive
Asgr2 | no change with or without drug | -1.12 | -0.84 | -0.56 | 0.84 | inactive
Lgi3 | high cell count with doxorubicin only | 2.02 | 1.35 | 1.24 | 1.12 | inactive
Dok5 | no change with or without drug | 0.45 | -1.18 | 1.46 | 0.98 | inactive
Nfatc2ip | no change with or without drug | -0.9 | 1.35 | -1.69 | 0.86 | inactive
Pgam1 | no change with or without drug | 1.24 | 1.85 | 0.11 | 1.05 | inactive
Cct8l1 | no change with or without drug | -0.34 | -1.18 | 0.56 | 0.91 | inactive

Entries above whose target name starts with M or m:
gene | combined z-score class | viability z-score with doxorubicin | viability z-score without drug | z-score of drug to no-drug ratio | doxorubicin viability vs non-targeting | outcome
Mmd | no change with or without drug | -0.22 | -1.85 | 1.35 | 0.92 | inactive
Mesp2 | no change with or without drug | -0.67 | 0 | -0.56 | 0.88 | inactive
Mfap3l | no change with or without drug | 0.56 | -0.51 | 1.12 | 0.99 | inactive
Mgll | no change with or without drug | 0.79 | 0.34 | 0.67 | 1.01 | inactive
